Assay results from the supplement of paper PMC10849652.
The other results are listed elsewhere or left out.

The chains behind the UniProt entries cited, without tags or fusion partners. Where a name states a change or a piece, a line headed by the entry shows the natural chain unless it says otherwise.
UniProt Q16881, whole entry, looked up: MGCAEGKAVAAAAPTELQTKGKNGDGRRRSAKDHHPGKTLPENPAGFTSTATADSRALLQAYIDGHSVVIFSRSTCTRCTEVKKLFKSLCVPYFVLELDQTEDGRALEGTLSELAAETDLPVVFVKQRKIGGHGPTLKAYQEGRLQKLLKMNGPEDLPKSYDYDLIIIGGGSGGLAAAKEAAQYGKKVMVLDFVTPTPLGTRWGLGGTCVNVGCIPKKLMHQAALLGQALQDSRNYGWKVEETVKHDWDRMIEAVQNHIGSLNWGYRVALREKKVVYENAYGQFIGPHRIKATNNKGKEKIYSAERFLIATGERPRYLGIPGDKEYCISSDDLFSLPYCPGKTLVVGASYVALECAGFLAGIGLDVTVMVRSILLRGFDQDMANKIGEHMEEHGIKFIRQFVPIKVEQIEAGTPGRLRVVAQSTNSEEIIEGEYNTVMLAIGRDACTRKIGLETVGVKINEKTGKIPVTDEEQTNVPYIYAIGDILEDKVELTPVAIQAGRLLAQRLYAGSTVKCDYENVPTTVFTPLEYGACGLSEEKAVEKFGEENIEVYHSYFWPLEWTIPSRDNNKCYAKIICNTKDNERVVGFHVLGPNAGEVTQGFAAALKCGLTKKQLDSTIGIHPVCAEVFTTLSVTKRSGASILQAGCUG
UniProt O14817: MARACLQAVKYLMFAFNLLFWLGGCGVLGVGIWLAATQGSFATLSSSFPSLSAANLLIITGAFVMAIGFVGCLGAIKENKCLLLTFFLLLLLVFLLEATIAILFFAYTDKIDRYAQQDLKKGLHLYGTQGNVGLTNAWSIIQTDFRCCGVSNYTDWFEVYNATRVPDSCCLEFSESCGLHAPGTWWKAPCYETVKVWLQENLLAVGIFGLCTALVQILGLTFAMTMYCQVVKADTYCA
UniProt P33981: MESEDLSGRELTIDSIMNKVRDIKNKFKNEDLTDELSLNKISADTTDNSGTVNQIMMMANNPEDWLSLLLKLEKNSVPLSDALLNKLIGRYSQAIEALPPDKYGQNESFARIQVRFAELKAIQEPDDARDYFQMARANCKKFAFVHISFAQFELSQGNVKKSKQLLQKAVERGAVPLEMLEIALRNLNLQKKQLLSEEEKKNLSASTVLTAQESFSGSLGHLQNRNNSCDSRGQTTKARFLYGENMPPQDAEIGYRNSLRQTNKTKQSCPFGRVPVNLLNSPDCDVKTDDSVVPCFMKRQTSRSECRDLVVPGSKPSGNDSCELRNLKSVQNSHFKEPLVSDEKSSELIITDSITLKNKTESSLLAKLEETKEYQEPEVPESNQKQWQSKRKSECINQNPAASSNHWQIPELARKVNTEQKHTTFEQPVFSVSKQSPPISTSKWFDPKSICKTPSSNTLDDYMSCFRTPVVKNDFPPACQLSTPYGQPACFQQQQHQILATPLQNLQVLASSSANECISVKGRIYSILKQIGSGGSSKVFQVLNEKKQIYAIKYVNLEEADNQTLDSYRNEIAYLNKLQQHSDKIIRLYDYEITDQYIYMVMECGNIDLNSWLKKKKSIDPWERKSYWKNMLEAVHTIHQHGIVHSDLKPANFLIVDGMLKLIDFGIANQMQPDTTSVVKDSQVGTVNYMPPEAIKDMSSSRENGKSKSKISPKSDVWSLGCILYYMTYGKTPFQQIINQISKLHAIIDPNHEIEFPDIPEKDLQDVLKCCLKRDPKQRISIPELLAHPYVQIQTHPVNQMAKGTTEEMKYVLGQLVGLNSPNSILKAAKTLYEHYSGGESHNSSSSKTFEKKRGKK
UniProt Q96RT8, whole entry, looked up: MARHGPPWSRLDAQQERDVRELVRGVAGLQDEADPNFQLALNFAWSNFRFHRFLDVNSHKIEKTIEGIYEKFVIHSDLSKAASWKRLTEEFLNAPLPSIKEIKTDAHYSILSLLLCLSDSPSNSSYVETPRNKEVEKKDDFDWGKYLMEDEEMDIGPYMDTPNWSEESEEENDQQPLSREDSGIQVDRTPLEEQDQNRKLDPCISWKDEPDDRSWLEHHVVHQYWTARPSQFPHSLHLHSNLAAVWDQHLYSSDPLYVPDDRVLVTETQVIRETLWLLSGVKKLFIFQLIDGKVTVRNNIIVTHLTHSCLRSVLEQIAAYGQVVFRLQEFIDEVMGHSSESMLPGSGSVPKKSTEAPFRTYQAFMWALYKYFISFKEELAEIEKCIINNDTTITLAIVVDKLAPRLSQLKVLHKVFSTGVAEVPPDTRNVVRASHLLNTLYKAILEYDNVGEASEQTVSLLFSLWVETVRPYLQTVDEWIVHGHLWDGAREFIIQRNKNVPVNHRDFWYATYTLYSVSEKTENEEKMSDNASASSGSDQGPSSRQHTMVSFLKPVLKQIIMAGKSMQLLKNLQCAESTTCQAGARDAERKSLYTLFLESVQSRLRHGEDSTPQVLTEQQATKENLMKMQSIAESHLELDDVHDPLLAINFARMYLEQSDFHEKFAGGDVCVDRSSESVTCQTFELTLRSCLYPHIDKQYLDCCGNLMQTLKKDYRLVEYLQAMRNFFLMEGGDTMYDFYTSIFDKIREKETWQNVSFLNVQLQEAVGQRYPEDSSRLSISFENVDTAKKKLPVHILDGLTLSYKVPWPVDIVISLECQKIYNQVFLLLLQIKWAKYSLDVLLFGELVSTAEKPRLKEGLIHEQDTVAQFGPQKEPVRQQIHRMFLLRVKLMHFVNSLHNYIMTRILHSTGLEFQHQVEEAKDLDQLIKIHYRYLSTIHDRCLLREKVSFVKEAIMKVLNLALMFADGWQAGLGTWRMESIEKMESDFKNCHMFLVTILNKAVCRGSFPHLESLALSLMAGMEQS
UniProt Q7Z4L5: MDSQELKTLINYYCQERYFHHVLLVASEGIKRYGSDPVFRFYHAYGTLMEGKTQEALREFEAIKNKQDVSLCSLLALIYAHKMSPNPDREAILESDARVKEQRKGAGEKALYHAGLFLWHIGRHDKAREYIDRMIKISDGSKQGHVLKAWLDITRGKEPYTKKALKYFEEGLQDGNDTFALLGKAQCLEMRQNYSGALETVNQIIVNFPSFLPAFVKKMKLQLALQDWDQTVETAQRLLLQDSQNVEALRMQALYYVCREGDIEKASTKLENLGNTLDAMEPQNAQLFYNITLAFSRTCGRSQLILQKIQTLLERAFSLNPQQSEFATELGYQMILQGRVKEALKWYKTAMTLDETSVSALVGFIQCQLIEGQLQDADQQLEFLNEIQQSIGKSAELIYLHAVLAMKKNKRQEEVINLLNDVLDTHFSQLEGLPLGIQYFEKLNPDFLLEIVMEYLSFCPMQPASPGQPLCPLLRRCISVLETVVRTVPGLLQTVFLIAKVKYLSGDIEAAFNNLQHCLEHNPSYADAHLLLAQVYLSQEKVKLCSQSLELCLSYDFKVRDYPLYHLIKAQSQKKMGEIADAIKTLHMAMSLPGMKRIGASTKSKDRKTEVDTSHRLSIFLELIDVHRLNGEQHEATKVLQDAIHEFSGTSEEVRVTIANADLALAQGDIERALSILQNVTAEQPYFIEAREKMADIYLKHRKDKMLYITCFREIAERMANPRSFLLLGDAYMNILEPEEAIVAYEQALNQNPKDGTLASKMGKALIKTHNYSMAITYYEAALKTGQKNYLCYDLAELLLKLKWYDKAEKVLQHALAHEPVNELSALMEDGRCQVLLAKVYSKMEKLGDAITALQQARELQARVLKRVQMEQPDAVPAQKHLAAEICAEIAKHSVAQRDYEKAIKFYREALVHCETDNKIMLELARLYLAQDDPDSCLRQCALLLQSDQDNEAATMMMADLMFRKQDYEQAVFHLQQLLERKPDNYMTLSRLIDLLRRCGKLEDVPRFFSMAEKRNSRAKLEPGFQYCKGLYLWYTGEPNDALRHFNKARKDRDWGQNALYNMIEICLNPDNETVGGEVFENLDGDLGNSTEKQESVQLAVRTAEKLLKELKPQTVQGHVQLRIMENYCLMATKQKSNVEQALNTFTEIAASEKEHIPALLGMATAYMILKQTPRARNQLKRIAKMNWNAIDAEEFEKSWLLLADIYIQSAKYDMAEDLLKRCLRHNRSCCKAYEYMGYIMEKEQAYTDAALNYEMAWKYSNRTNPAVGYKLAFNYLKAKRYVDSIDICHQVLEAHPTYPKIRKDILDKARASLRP
UniProt Q8N0Z6: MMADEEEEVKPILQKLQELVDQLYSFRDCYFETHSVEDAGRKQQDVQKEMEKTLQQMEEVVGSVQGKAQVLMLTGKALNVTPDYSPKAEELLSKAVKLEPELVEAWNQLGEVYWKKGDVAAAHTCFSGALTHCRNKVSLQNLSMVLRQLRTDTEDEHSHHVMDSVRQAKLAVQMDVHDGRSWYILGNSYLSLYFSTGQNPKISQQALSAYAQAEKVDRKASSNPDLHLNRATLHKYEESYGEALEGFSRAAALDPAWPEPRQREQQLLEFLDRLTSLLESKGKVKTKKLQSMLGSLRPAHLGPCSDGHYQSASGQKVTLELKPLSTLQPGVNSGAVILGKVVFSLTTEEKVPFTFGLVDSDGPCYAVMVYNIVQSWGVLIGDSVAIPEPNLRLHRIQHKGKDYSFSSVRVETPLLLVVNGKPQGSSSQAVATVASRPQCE
UniProt Q8N2K1: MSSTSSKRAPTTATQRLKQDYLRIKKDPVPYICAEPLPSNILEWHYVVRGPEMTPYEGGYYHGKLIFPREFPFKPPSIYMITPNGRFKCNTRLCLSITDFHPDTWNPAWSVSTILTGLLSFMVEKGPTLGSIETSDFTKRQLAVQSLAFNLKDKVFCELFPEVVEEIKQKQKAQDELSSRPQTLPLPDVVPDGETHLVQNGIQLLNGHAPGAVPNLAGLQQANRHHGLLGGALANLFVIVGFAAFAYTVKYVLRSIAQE
UniProt O14933: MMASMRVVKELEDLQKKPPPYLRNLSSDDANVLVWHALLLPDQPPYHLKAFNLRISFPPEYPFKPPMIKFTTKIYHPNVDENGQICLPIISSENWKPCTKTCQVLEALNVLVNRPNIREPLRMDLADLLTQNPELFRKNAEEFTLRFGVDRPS
UniProt O75896: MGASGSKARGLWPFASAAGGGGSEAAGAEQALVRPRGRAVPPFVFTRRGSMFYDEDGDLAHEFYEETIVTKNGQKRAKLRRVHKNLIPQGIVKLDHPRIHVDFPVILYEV
UniProt Q9UJ04: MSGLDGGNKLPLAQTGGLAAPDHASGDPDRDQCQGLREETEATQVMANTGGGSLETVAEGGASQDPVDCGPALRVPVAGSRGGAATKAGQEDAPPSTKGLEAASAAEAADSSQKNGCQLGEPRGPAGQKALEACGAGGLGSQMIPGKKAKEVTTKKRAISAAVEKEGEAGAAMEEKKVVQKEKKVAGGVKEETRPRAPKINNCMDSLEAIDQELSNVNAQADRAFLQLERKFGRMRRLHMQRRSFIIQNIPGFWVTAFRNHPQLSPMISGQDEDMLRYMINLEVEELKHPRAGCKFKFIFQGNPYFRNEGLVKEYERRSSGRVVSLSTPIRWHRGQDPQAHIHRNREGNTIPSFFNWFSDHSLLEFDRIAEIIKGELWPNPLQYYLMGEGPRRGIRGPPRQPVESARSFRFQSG
UniProt Q96RR1: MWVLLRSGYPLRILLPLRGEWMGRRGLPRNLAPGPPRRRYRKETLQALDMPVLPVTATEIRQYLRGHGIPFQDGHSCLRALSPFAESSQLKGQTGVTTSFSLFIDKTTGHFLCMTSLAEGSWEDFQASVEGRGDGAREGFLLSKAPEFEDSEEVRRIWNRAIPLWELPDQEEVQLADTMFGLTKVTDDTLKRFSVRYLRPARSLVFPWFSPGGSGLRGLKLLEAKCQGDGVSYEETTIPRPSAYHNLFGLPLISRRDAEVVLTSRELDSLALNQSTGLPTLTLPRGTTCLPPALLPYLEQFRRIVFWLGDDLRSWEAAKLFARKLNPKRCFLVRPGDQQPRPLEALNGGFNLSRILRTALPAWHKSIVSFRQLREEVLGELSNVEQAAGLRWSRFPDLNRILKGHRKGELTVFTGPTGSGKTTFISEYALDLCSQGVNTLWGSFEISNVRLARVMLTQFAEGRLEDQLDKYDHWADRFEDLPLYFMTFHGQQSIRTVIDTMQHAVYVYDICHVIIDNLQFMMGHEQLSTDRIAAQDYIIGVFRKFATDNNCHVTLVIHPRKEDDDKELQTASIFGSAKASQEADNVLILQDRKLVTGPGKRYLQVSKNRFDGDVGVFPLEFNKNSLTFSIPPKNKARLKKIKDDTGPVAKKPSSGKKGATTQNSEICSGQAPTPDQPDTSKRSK
UniProt Q9H0U9: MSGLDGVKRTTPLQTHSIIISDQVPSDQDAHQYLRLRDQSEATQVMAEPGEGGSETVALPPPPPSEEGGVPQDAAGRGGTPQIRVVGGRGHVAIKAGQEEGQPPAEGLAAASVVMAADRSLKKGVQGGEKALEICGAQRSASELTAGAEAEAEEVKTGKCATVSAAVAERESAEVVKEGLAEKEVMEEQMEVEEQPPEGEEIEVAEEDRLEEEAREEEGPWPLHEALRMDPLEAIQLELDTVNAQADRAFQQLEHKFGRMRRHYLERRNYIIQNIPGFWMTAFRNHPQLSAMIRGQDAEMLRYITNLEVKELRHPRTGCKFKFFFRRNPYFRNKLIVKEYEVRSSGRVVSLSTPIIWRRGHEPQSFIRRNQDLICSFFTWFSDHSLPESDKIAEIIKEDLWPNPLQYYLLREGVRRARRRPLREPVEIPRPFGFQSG

Experiments:
Test in all cases: log2 fold change, soluble protein after heating vs DMSO (PISA); higher = thermal stabilisation; K562 cells, 10 uM, 30 min; active = over 0.2 and 3.5 SD of the protein, either way, in both replicates (recomputed)
[1] = compound: COC1=CC=C(C=C1)CN2C=CC3=C2C=C(C=C3)C(=O)NO
In short: (§1)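 Thermal stability values are relative to control samples and come from duplicates. They are expressed as log2 fold changes. For measurement, K562 cells (2×10^6 cells/mL) received 10 μM compound for 30 min, and aliquots were heated for 3 min over 48°C-58°C, pooled, and extracted at 4°C in PBS with 0.5% NP-40. Soluble protein, the supernatant after 21,000xg for 90 min, was quantified by TMTpro 16plex LC-MS/MS with equalised channel sums.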

filanesib = compound: CON(C)C(=O)N1N=C(c2cc(F)ccc2F)S[C@@]1(CCCN)c1ccccc1 [filanesib]
In short: as §1

gefitinib = compound: COc1cc2ncnc(Nc3ccc(F)c(Cl)c3)c2cc1OCCCN1CCOCC1 [gefitinib]
In short: as §1

[2] = compound: CS(=O)(=O)c1ccc(-c2cnc(N)c(C(=O)Nc3ccccc3)n2)cc1
In short: as §1

crizotinib = compound: C[C@@H](Oc1cc(-c2cnn(C3CCNCC3)c2)cnc1N)c1c(Cl)ccc(F)c1Cl [crizotinib]
In short: as §1

duvelisib = compound: C[C@H](Nc1ncnc2nc[nH]c12)c1cc2cccc(Cl)c2c(=O)n1-c1ccccc1 [duvelisib]
In short: as §1

[3] = compound: Cc1cc(SCc2sc(-c3ccc(C(F)(F)F)cc3)nc2C)ccc1OCC(=O)O
In short: as §1

doramapimod = compound: Cc1ccc(-n2nc(C(C)(C)C)cc2NC(=O)Nc2ccc(OCCN3CCOCC3)c3ccccc23)cc1 [doramapimod]
In short: as §1

ispinesib = compound: Cc1ccc(C(=O)N(CCCN)[C@@H](c2nc3cc(Cl)ccc3c(=O)n2Cc2ccccc2)C(C)C)cc1 [ispinesib]
In short: as §1

idasanutlin = compound: COc1cc(C(=O)O)ccc1NC(=O)[C@@H]1N[C@@H](CC(C)(C)C)[C@](C#N)(c2ccc(Cl)cc2F)[C@H]1c1cccc(Cl)c1F [idasanutlin]
In short: as §1

alisertib = compound: COc1cc(Nc2ncc3c(n2)-c2ccc(Cl)cc2C(c2c(F)cccc2OC)=NC3)ccc1C(=O)O [alisertib]
In short: as §1

[4] = compound: COc1cccc2cc(-c3nc([C@H]4CC[C@H](C(=O)O)CC4)n4ncnc(N)c34)[nH]c12
In short: as §1

[5] = compound: COc1cc2nc(-c3cc(F)ccc3O)nc(N[C@@H]3CNC[C@H]3C(C)(C)O)c2cc1OC
In short: as §1

lapatinib = compound: CS(=O)(=O)CCNCc1ccc(-c2ccc3ncnc(Nc4ccc(OCc5cccc(F)c5)c(Cl)c4)c3c2)o1 [lapatinib]
In short: as §1

pictilisib = compound: CS(=O)(=O)N1CCN(Cc2cc3nc(-c4cccc5[nH]ncc45)nc(N4CCOCC4)c3s2)CC1 [pictilisib]
In short: as §1

[6] = compound: C[C@@H]1COCCN1C2=NC(=NC(=C2)C3(CC3)S(=O)(=O)C)C4=C5C=CNC5=CC=C4
In short: as §1

gandotinib = compound: Cc1cc(Nc2cc(CN3CCOCC3)c3nc(C)c(Cc4ccc(Cl)cc4F)n3n2)n[nH]1 [gandotinib]
In short: as §1

zotarolimus = compound: CO[C@H]1C[C@@H]2CC[C@@H](C)[C@@](O)(O2)C(=O)C(=O)N2CCCC[C@H]2C(=O)O[C@H]([C@H](C)C[C@@H]2CC[C@H](n3cnnn3)[C@H](OC)C2)CC(=O)[C@H](C)/C=C(\C)[C@@H](O)[C@@H](OC)C(=O)[C@H](C)C[C@H](C)/C=C/C=C/C=C/1C [zotarolimus]
In short: as §1

[7] = compound: C[C@H](C1=CC=C(C=C1)C(=O)NC2=C3C=CNC3=NC=C2)N
In short: as §1

tozasertib = compound: Cc1cc(Nc2cc(N3CCN(C)CC3)nc(Sc3ccc(NC(=O)C4CC4)cc3)n2)n[nH]1 [tozasertib]
In short: as §1

Measured: log2 fold change

TUBB8 (UniProt Q3ZCM7)
inactive: [1] 0.073 | filanesib -0.005 | gefitinib 0.006 | [2] -0.165 | crizotinib 0.029 | duvelisib -0.02 | [3] -0.118 | doramapimod 0.023 | ispinesib 0.098

TTR (UniProt P02766)
inactive: idasanutlin -0.176 | alisertib -0.28 | [4] -0.034

TXNRD1 isoform 7 (UniProt Q16881)
inactive: filanesib -0.034 | [5] 0.242 | lapatinib -0.07 | pictilisib 0.037 | [2] 0.075 | [6] -0.026 | gandotinib 0.125 | [3] -0.015

TTC37 (UniProt Q6PGP7)
inactive: [1] -0.898 | idasanutlin -0.056 | crizotinib 0.121 | [6] -0.116 | doramapimod -0.444 | ispinesib -0.094

UBE2D1 (UniProt P51668)
inactive: filanesib -0.003 | zotarolimus -0.006 | idasanutlin -0.083 | alisertib 0.094 | [5] 0.137 | gefitinib -0.012 | [4] 0.002 | lapatinib -0.063 | pictilisib 0.021 | [2] 0.062 | [7] -0.004 | gandotinib 0.047 | [3] 0.102 | ispinesib 0.056

TSPAN4 (UniProt O14817)
inactive: alisertib -0.087 | [4] 0.095 | tozasertib -0.03 | ispinesib 0.137

TSPAN17 isoform 4 (UniProt Q96FV3)
inactive: filanesib -0.023 | [2] 0.205 | [6] -0.05

U2AF1L5 (UniProt P0DN76)
inactive: [1] -0.034 | idasanutlin -0.051 | alisertib -0.517 | gefitinib -0.048 | [4] -0.238 | crizotinib -0.105 | [3] 0.023 | doramapimod -0.1

TTK (UniProt P33981)
inactive: [6] -0.237 | ispinesib -0.53

TYRO3 (UniProt Q06418)
inactive: [1] -0.053 | filanesib -0.045 | gefitinib 0.048 | [2] 0.208 | [6] -0.124 | doramapimod 0.045

TUBGCP5 (UniProt Q96RT8)
inactive: [1] -0.104 | zotarolimus 0.064 | [5] 0.073 | gefitinib 0.109 | lapatinib -0.032 | pictilisib -0.083 | crizotinib -0.02 | [6] 0.043 | [7] 0.014 | gandotinib -0.076 | tozasertib -0.069 | doramapimod -0.013

TTC21B (UniProt Q7Z4L5)
inactive: [5] 0.258 | lapatinib -0.177 | duvelisib 0.11 | tozasertib -0.299 | [3] -0.206

TTC5 (UniProt Q8N0Z6)
inactive: filanesib -0.009 | [2] -0.187 | duvelisib -0.149 | [3] 0.065 | ispinesib -0.153

UBE2J2 isoform 3 (UniProt Q8N2K1)
inactive: filanesib 0.146 | zotarolimus -0.031 | idasanutlin 0.092 | [5] 0.134 | lapatinib -0.07 | pictilisib -0.145 | [2] 0.252 | [6] -0.076 | [7] -0.365 | gandotinib 0.028 | [3] -0.01

UBE2L6 (UniProt O14933)
inactive: idasanutlin 0.194

TUSC2 (UniProt O75896)
inactive: [1] 0.081 | filanesib -0.05 | alisertib -0.186 | gefitinib -0.1 | [4] 0.281 | [2] 0.041 | crizotinib 0.027 | [6] 0.241 | doramapimod -0.056

TSPYL4 (UniProt Q9UJ04)
inactive: [1] -0.111 | crizotinib 0.054 | doramapimod -0.026

TWNK (UniProt Q96RR1)
inactive: idasanutlin -0.156 | gefitinib -0.094 | [6] -0.158 | tozasertib -0.199 | ispinesib -0.217

TYW5 (UniProt A2RUC4)
inactive: idasanutlin -0.002 | alisertib 0.068 | [5] -0.045 | [4] -0.036 | lapatinib -0.066 | pictilisib 0.13 | [6] 0.126 | gandotinib -0.115 | tozasertib -0.207 | ispinesib 0.033

TVP23C (UniProt Q96ET8)
inactive: zotarolimus -0.006 | idasanutlin -0.124 | alisertib 0.007 | [5] -0.024 | [4] 0.235 | lapatinib -0.14 | pictilisib -0.029 | [7] 0.03 | gandotinib -0.016 | [3] -0.092

TSKU (UniProt Q8WUA8)
inactive: zotarolimus -0.071 | [5] 0.204 | lapatinib 0.046 | [7] 0.09 | tozasertib -0.017

TSPYL1 (UniProt Q9H0U9)
inactive: zotarolimus 0.102 | idasanutlin -0.034 | [5] -0.08 | gefitinib 0.157 | lapatinib 0.103 | [7] 0.018

TUBGCP6 (UniProt Q96RT7)
inactive: [1] -0.111 | idasanutlin -0.207 | crizotinib -0.231 | doramapimod 0.081

Quoted from the entries so far (eight entries):
TUSC2 (UniProt O75896)
inactive: [1] 0.081 | filanesib -0.05 | alisertib -0.186 | gefitinib -0.1 | [4] 0.281 | [2] 0.041 | crizotinib 0.027 | [6] 0.241 | doramapimod -0.056

TSPYL4 (UniProt Q9UJ04)
inactive: [1] -0.111 | crizotinib 0.054 | doramapimod -0.026

TWNK (UniProt Q96RR1)
inactive: idasanutlin -0.156 | gefitinib -0.094 | [6] -0.158 | tozasertib -0.199 | ispinesib -0.217

TYW5 (UniProt A2RUC4)
inactive: idasanutlin -0.002 | alisertib 0.068 | [5] -0.045 | [4] -0.036 | lapatinib -0.066 | pictilisib 0.13 | [6] 0.126 | gandotinib -0.115 | tozasertib -0.207 | ispinesib 0.033

TVP23C (UniProt Q96ET8)
inactive: zotarolimus -0.006 | idasanutlin -0.124 | alisertib 0.007 | [5] -0.024 | [4] 0.235 | lapatinib -0.14 | pictilisib -0.029 | [7] 0.03 | gandotinib -0.016 | [3] -0.092

TSKU (UniProt Q8WUA8)
inactive: zotarolimus -0.071 | [5] 0.204 | lapatinib 0.046 | [7] 0.09 | tozasertib -0.017

TSPYL1 (UniProt Q9H0U9)
inactive: zotarolimus 0.102 | idasanutlin -0.034 | [5] -0.08 | gefitinib 0.157 | lapatinib 0.103 | [7] 0.018

TUBGCP6 (UniProt Q96RT7)
inactive: [1] -0.111 | idasanutlin -0.207 | crizotinib -0.231 | doramapimod 0.081

Continuation:

TTC17 isoform 2 (UniProt Q96AE7)
inactive: [1] -0.037 | [5] 0.134 | lapatinib 0.008 | pictilisib -0.02 | crizotinib -0.031 | gandotinib 0.046 | doramapimod 0.028

TSPAN13 (UniProt O95857)
inactive: filanesib -0.041 | zotarolimus 0.022 | alisertib -0.164 | [5] -0.013 | gefitinib 0.047 | [4] -0.064 | lapatinib -0.053 | pictilisib 0.053 | [2] -0.055 | [6] 0.4 | [7] -0.17 | gandotinib -0.05 | [3] -0.124 | ispinesib -0.03

UBE2M (UniProt M0QX69)
inactive: [1] 0.152 | crizotinib -0.073 | doramapimod -0.004

UBE2L5, A0A1B0GUS4
inactive: zotarolimus -0.533 | [7] -0.089 | tozasertib -0.297

TTC26
inactive: ispinesib 0.105
